{"source": "PubChem BioAssay AID1347076", "about": "(National Center for Advancing Translational Sciences (NCATS), 2019)", "note": "The whole screen tested about 400,000 compounds, of which about 13,000 (3.2%) were called active. The inconclusive results got no clear call from the source; some entries with a clear call stand among them for comparison. Calls come from the whole dose curve; as a rule, active = well fitted cell-killing curve with a large enough effect; inconclusive = small, poorly fitted or top-dose-only effect, or effect the other way; inactive = flat fitted curve, though single readings scatter. Potencies of inconclusive entries are doubtful fits and often do not repeat. % is set by controls: 0 for no effect and ±100 for the full control effect; potency is the fitted concentration of half-maximal effect."}
{"assay": "qHTS assay for MDR1-selective chemotherapeutics: Primary screen using the drug-selected MDR subline cells KB-V1; note: nearly all actives have a fitted effect of over 60% in size", "settings": "KB-V1 MDR cells viability, CellTiter-Glo, 72 h; activity change, negative = cytotoxicity: at 46.1 µM (top of the series)", "in_short": "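qHTS viability screen in drug-selected KB-V1 MDR cells: 72 h compound treatment at 37 degrees C, ATP luminescence end point.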"}
{"smiles": "CC(C)(C)c1ccc(NC(=O)c2cc(C3CCCN(S(=O)(=O)c4cccc5cccnc45)C3)on2)cc1", "note": "(stereo not given)", "Potency": "active: 23.1 µM"}
{"smiles": "Cc1ccc(C(=O)CSc2nc(C)cc(C)c2C(N)=O)cc1", "Potency": "active: 16.4 µM"}
{"smiles": "COc1ccc(CCNc2ncnc3sccc23)cc1OC", "Potency": "inconclusive: 0.259 µM [cytotoxic, full curve]"}
{"smiles": "Cc1cc2cc(CN(C(=O)C3CC3)C3CCCC3)c3nnnn3c2cc1C", "Potency": "inconclusive: 18.4 µM [cytotoxic, partial curve]"}
{"smiles": "O=C(NCc1ccccc1Cl)c1cccc(OC2CCN(C(=O)C3CC3)CC2)c1", "Potency": "active: 6.51 µM"}
{"smiles": "Cc1nc(CNC(=O)C2CCC(=O)N(CCc3ccc(Cl)cc3)C2)sc1C", "note": "(stereo not given)", "Potency": "inconclusive: 11.6 µM [cytotoxic, partial curve]"}
{"smiles": "CC(NC(=O)C(=O)N1CCCCC1)C(c1cccs1)N1CCN(c2ccccc2F)CC1", "note": "(stereo not given)", "activity change, negative = cytotoxicity": "inactive: -16.7%"}
{"smiles": "CSCCC(NS(=O)(=O)c1ccc(Cl)cc1)C(=O)OCc1cccc(Cl)c1", "note": "(stereo not given)", "Potency": "inconclusive: 23.1 µM [cytotoxic, partial curve, poor fit]"}
{"smiles": "O=C(NCC(c1cccs1)N1CCOCC1)c1cc([N+](=O)[O-])cc([N+](=O)[O-])c1", "note": "(stereo not given)", "Potency": "active: 23.1 µM"}
{"smiles": "Cc1noc(C)c1S(=O)(=O)N1CCC(C(=O)NC2CCN(Cc3ccccc3)CC2)CC1", "Potency": "inconclusive: 20.6 µM [cytotoxic, partial curve]"}
{"smiles": "COc1ccc(-c2nn3c(-c4ccccc4)nnc3s2)cc1", "Potency": "inconclusive: 16.4 µM [cytotoxic, single point]"}
{"smiles": "COc1ccc(OC)c(NS(=O)(=O)c2ccc(N3CCCCS3(=O)=O)cc2)c1", "activity change, negative = cytotoxicity": "inactive: -1.85%"}
{"smiles": "COc1ccc(/C=C2\\N=C(c3ccc(C)cc3)OC2=O)cc1", "Potency": "inconclusive: 7.31 µM [rising, partial curve]"}
{"smiles": "CC(C)c1ccc(/C=C/C(=O)N2CCc3ccccc3C2)cc1", "Potency": "inconclusive: 20.6 µM [cytotoxic, single point]"}
{"smiles": "C=CCOc1c(Br)cc(CNc2ccc(NC(=O)C(C)C)c(OC)c2)cc1OC", "Potency": "active: 4.11 µM"}
{"smiles": "O=S(=O)(c1cccnc1)N1CCN(c2nc(-c3cccs3)nc3ccccc23)CC1", "Potency": "inconclusive: 18.4 µM [cytotoxic, single point]"}
{"smiles": "CC(C)CN(C(=O)c1cccc(S(=O)(=O)N2CCN(Cc3ccccc3)CC2)c1)C1CCS(=O)(=O)C1", "note": "(stereo not given)", "activity change, negative = cytotoxicity": "inactive: -11.3%"}
{"smiles": "c1ccc(-c2ccc(OCCOCCn3cncn3)cc2)cc1", "activity change, negative = cytotoxicity": "inconclusive: -53.5%"}
{"smiles": "CCOC(=O)C1(Cc2ccccc2Cl)CCN(C(=O)c2cc(C)on2)CC1", "activity change, negative = cytotoxicity": "inconclusive: -0.86%"}
{"smiles": "CCOC(=O)C1(Cc2ccccc2)CCN(Cc2ccc(C)s2)CC1", "Potency": "inconclusive: 18.4 µM [cytotoxic, partial curve]"}
